{"source": "PubChem BioAssay AID1224830 (NIAID, 2016)", "assay": "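Host factors that control LPS-induced TNF expression in human macrophages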 (primary screen)", "cells": "human THP-1 monocytic leukaemia cells, TNF dual-luciferase reporter clone, PMA-differentiated to macrophage-like cells", "reagent": "siRNA pool against human genes, 50 nM", "time to read-out": "LPS for 4 h, given about 3 days after siRNA transfection", "challenge": "bacterial LPS (TLR4 ligand), 10 ng/ml", "measurement": "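TNF firefly reporter luminescence divided by renilla, normalised to the plate median, then turned into a robust z-score for each replicate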", "scale": "TNF reporter robust z-score: higher = stronger TNF reporter response to LPS", "hit rule": "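a well is active when its z-score exceeds 2.8 or falls below -1.5; control wells carry no call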", "note": "Here is one part, drawn at random, of about 18,000 reagents. About 2,900 of all reagents (16%) count as active. 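Calls are made per well; low scores hint the gene aids the LPS response, high scores that it dampens it.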 Entries without a mark were called inactive. Repeated entries: four replicate wells of each siRNA pool. Reagent sequences are not shown."}
{"Gene": "TIMD4", "TNF reporter robust z-score": 0.14}
{"Gene": "TIMD4", "TNF reporter robust z-score": 0.84}
{"Gene": "TIMD4", "TNF reporter robust z-score": 0.89}
{"Gene": "TIMD4", "TNF reporter robust z-score": 0.95}
{"Gene": "INSM2", "TNF reporter robust z-score": 0.29}
{"Gene": "INSM2", "TNF reporter robust z-score": 0.37}
{"Gene": "INSM2", "TNF reporter robust z-score": -0.32}
{"Gene": "INSM2", "TNF reporter robust z-score": 0.71}
{"Gene": "HK1", "TNF reporter robust z-score": -0.42}
{"Gene": "HK1", "TNF reporter robust z-score": -0.44}
{"Gene": "HK1", "TNF reporter robust z-score": -0.69}
{"Gene": "HK1", "TNF reporter robust z-score": -0.2}
{"Gene": "NKAPD1", "TNF reporter robust z-score": -0.05}
{"Gene": "NKAPD1", "TNF reporter robust z-score": 0.9}
{"Gene": "NKAPD1", "TNF reporter robust z-score": -0.46}
{"Gene": "NKAPD1", "TNF reporter robust z-score": 0.67}
{"Gene": "SLC47A1", "TNF reporter robust z-score": -1.48}
{"Gene": "SLC47A1", "TNF reporter robust z-score": -0.92}
{"Gene": "SLC47A1", "TNF reporter robust z-score": -1.2}
{"Gene": "SLC47A1", "TNF reporter robust z-score": -1.1}

Records above whose target name starts with T or t:
{"Gene": "TIMD4", "TNF reporter robust z-score": 0.14}
{"Gene": "TIMD4", "TNF reporter robust z-score": 0.84}
{"Gene": "TIMD4", "TNF reporter robust z-score": 0.89}
{"Gene": "TIMD4", "TNF reporter robust z-score": 0.95}

Additional reagents follow:
{"Gene": "CCDC146", "TNF reporter robust z-score": -0.99}
{"Gene": "CCDC146", "TNF reporter robust z-score": -0.05}
{"Gene": "CCDC146", "TNF reporter robust z-score": -0.52}
{"Gene": "CCDC146", "TNF reporter robust z-score": 0.06}
{"Gene": "KCNIP2", "TNF reporter robust z-score": 0.02}
{"Gene": "KCNIP2", "TNF reporter robust z-score": -0.65}
{"Gene": "KCNIP2", "TNF reporter robust z-score": 0.2}
{"Gene": "KCNIP2", "TNF reporter robust z-score": 0.85}
{"Gene": "H3C11", "TNF reporter robust z-score": 0.22}
{"Gene": "H3C11", "TNF reporter robust z-score": -0.35}
{"Gene": "H3C11", "TNF reporter robust z-score": 1.69}
{"Gene": "H3C11", "TNF reporter robust z-score": 2.27}
{"Gene": "NUDT18", "TNF reporter robust z-score": -0.24}
{"Gene": "NUDT18", "TNF reporter robust z-score": -0.03}
{"Gene": "NUDT18", "TNF reporter robust z-score": 0.21}
{"Gene": "NUDT18", "TNF reporter robust z-score": -0.41}
{"Gene": "CDKN2A", "TNF reporter robust z-score": -0.42}
{"Gene": "CDKN2A", "TNF reporter robust z-score": -0.84}
{"Gene": "CDKN2A", "TNF reporter robust z-score": -0.54}
{"Gene": "CDKN2A", "TNF reporter robust z-score": -0.8}
{"Gene": "SERPINB3", "TNF reporter robust z-score": 0.25}
{"Gene": "SERPINB3", "TNF reporter robust z-score": -0.17}
{"Gene": "SERPINB3", "TNF reporter robust z-score": -0.82}
{"Gene": "SERPINB3", "TNF reporter robust z-score": 0.77}
{"Gene": "ZCCHC12", "TNF reporter robust z-score": 0.48}
{"Gene": "ZCCHC12", "TNF reporter robust z-score": 0.32}
{"Gene": "ZCCHC12", "TNF reporter robust z-score": 1.04}
{"Gene": "ZCCHC12", "TNF reporter robust z-score": -0.1}
